These are yes or no findings as the source states them, for the method shown. Some entries that bind do so weakly or less than the wild type. Where a sequence is shown, tags or fusion partners need not be part of it.
Biological target: FCA-eGFP (Arabidopsis) (UniProt O04425)
Test: single particle tracking with stepwise photobleaching

B1: FCA-eGFP (protein, UniProt O04425 1-747)
chain: MNGPPDRVDFKPMGPHHGGSFRPMGFAYDDGFRPMGPNGGVGGEGTRSIVGARYNYPAKYPPSESPDRRRFIGKAMESDYSVRPTTPPVQQPLSGQKRGYPISDHGSFTGTDVSDRSSTVKLFVGSVPRTATEEEIRPYFEQHGNVLEVALIKDKRTGQQQGCCFVKYATSKDADRAIRALHNQITLPGGTGPVQVRYADGERERIGTLEFKLFVGSLNKQATEKEVEEIFLQFGHVEDVYLMRDEYRQSRGCGFVKYSSKETAMAAIDGLNGTYTMRGCNQPLIVRFAEPKRPKPGESREMAPPVGLGSGPRFQASGPRPTSNFGDSSGDVSHTNPWRPATSRNVGPPSNTGIRGAGSDFSPKPGQATLPSNQGGPLGGYGVPPLNPLPVPGVSSSATLQQQNRAAGQHITPLKKPLHSPQGLPLPLRPQTNFPGAQAPLQNPYAYSSQLPTSQLPPQQNISRATAPQTPLNINLRPTTVSSATVQFPPRSQQQPLQKMQHPPSELAQLLSQQTQSLQATFQSSQQAISQLQQQVQSMQQPNQNLPLSQNGRAGKQQWAGSAIPRVASTTGSTPVSYVQTAAPAVSQSVGSVKCTWTEHTSPDGFKYYYNGLTGESKWEKPEEMIVFEREQQKQQQHQEKPTIQQSQTQLQPLQQQPQQVQQQYQGQQLQQPFYSSLYPTPGASHNTQYPSLPVGQNSQFPMSGIGQNAQDYARTHIPVGAASMNDISRTQQSRQSPQELMWKNKA
With B1 the binding was “binds”.

Source: paper doi:10.1101/2024.04.06.588283
